Measured values taken from patent US10314912B2, “Polymer coating compositions and coated products” (Ariste Medical, LLC, priority 2012, dated 2019).
For at least one compound, name, drawing or mass did not settle the structure.

Assay: HPLC recovery of sirolimus from BDPM/PTPO coating composition
Type: physicochemical
Details: 1 mg/ml sirolimus in dichlorobenzene, PTPO study, chromatogram #4, FIG. 13

CO[C@H]1C[C@@H]2CC[C@@H](C)[C@@](O)(O2)C(=O)C(=O)N2CCCC[C@H]2C(=O)O[C@H]([C@H](C)C[C@@H]2CC[C@@H](O)[C@H](OC)C2)CC(=O)[C@H](C)/C=C(\C)[C@@H](O)[C@@H](OC)C(=O)[C@H](C)C[C@H](C)/C=C/C=C/C=C/1C [sirolimus]
sirolimus peak in chromatogram: absence of the sirolimus peak
